These results are taken from patent US20060024667A1.

Sequences of proteins named here, by UniProt entry; tags and fusion partners are left off. Residues count along the entry.
UniProt P05067, residues 672-713: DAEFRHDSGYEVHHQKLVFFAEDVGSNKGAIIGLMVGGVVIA

No constants are given. Whether binding was seen depends on the method and setting. Some entries that bind do so weakly or less than the wild type.

In this experiment the target is human amyloid-beta peptide (Aβ42), wild-type (human) (UniProt P05067). Put plainly: phage ELISA, Aβ42-coated plate, anti-M13 HRP. On the technique in general: In an ELISA, binding on a coated surface is turned into a signal by an enzyme label.

B1: mouse anti-Aβ42 scFv clone AM 3.26 (phage-displayed) (scFv)
scFv: QVKLQQWGTEVVKPGASVKLSCKASGYIFTSYDIDWVRQTPEQGLEWIGWIFPGEGSTEYNEKFKGRATLSVDKSSSTAYMELTRLTSEDSAVYFCARGDYYRRYFDLWGQGTTVTVSSCGGGSGGGGSGGGGSDIELTQSPAIMSASPGERVTMTCSASSSIRYIYWYQQKPGSSPRLLIYDTSNVAPGVPFRFSGSGSGTSYSLTINRMEAEDAATYYCQEWSGYPYTFGGGTKLELKR
With B1, the binding result is “binds”.
